This test has as its target YFP-tagged Rab2B^Q66L (active form, GTP-locked) (T. brucei). The test is described as follows: affinity purification with mass spectrometry.

No constants are given. Whether binding was seen depends on the method and setting. Binding seen in cells or lysates may run through a third protein. Here binding means that the protein was enriched with, or labelled near, the bait; the list need not be complete.

B1: heat shock protein HSP60 (protein, UniProt Q37683 9-562)
chain: GAKDIRFGTEARQSMLKGVQRAVEAVATTLGPKGRNVIIEQSYGAPKITKDGVTVAKSIEFKDPFENMGAQLVRQVCNKTNDLAGDGTTTSAVLVASIFSEGIKSIATGTNPIDMKRGMDRAVEVILKNIESQSRTVTNTENVVQVATISANGDVELGKLIGEAMEKVGKDGVITTQDGKTLTTELEVVEGMSVDRGYISPYFVTDAKTQKAELEDAFVLVSAKKLNNIHTILPVLNHVVRSGRPLLIIADDVESEALTTMIFNKLQGKLKIACVKAPGFGDNKAAMLQDIAIFSGACVVGEEGSGVELDAEKFEASILGSVKKATITKDDTVLLNGGGDVAMMKERVDLVRGLIERETSDYNREKLQERLAKLSGGVAVIRVGGASEVEVNEKKDRITDALCSTRAAVQEGIVPGGGPALLRASKALDGLLQDQSLTADQRTGVQIIRNAVRLPAHRIVANAGREGAVVVEKVLENTDAAVGYDAQLDRYVNMFEAGIIDPARVVRVALTDAASVASLMMTAEAAVVDLPKDDAPAAGGMGGMGGMGGMDGMY
Turning to B1, the binding entry is listed as “binds”.

(Values after publication doi:10.1101/2024.11.27.625582.)
